Reference: PubChem BioAssay AID504834 (National Center for Advancing Translational Sciences (NCATS), 2011)
Hit rate of the full screen: of about 320,000 compounds, about 22,000 (6.9%) were called active. Inconclusive means that the source gave no clear call. Such entries were picked first, then a sample of the others. Calls come from the whole dose curve; as a rule, active = well fitted inhibition curve with a large enough effect; inconclusive = small, poorly fitted or top-dose-only effect, or another doubt; inactive = no such curve, though single readings can be large or run the other way. A potency beside an inconclusive call is a rough fit, not a confirmed value.

assay: Primary qHTS for delayed death inhibitors of the malarial parasite plastid, 96 hour incubation; conditions: P. falciparum luciferase reporter growth; series mostly up to 28.7 µM; activity change, negative = inhibition: at the top concentration
Summary of the method: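 96 h incubation, 37 C, 5% CO2, of luciferase-reporter P. falciparum-infected RBCs (2% hematocrit, 0.05% parasitemia final) with test compounds; endpoint luminescence.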
% is set by controls: 0 for no effect and ±100 for the full control effect; potency is the fitted concentration of half-maximal effect.

**Q.** With CC(C)c1ccc(NC(=O)CSc2nc(-c3ccccc3F)nc3nc[nH]c23)cc1 as the molecule, how does the Potency read?
**A.** inconclusive: 18.5 µM [inhibitor, single point]

**Q.** With COc1ccc(C(=O)NCC(=O)N/N=C/c2ccco2)cc1OC as the molecule, how does the “activity change, negative = inhibition” value read?
**A.** inactive: 11.7%

**Q.** With CC1(C)CC(=O)c2sc(NS(=O)(=O)c3ccccc3)nc2C1 as the molecule, how does the “activity change, negative = inhibition” value read?
**A.** inactive: 32.6%

**Q.** With CN(Cc1ccccc1)S(=O)(=O)c1ccc(OCC(=O)N2CCOCC2)cc1 as the molecule, how does the Potency read?
**A.** inconclusive: 0.147 µM [inhibitor, full curve, poor fit]

**Q.** For S=C(NCc1ccco1)N1CCN(c2nc(-c3ccccc3)cs2)CC1, which “activity change, negative = inhibition” value is on record?
**A.** inactive: -36.8%

**Q.** Which Potency does the source give for O=C(c1ccco1)N1N=C(c2ccc(Br)cc2)CC1(O)C(F)(F)F (stereo not given) here?
**A.** inconclusive: 18.5 µM [inhibitor, single point]

**Q.** Which “activity change, negative = inhibition” value does the source give for COc1cc(/C=N\Nc2cc(=O)n(C)c(=O)n2C)ccc1O here?
**A.** inactive: 13.7%

**Q.** Which Potency does the source give for COc1cc(NC(=O)CCCn2c(=S)[nH]c3ccccc3c2=O)cc(OC)c1OC here?
**A.** inconclusive: 0.738 µM [inhibitor, full curve, poor fit]

**Q.** With Cc1nn(C)c(C)c1CNC(=O)Nc1cccc(Cl)c1 as the molecule, how does the Potency read?
**A.** inconclusive: 14.7 µM [inhibitor, partial curve, poor fit]

**Q.** For CCCOC(=O)C1=C(C)NC(=O)NC1c1cc2c(cc1Br)OCO2 (stereo not given), which “activity change, negative = inhibition” value is on record?
**A.** inactive: 9.73%

**Q.** With COc1ccc(NC2CCCN(C(=O)c3ccc(C(C)=O)s3)C2)cc1 (stereo not given) as the molecule, how does the “activity change, negative = inhibition” value read?
**A.** inactive: 16.2%

**Q.** Which Potency does the source give for Clc1cccc(Cl)c1OCCOCCNCc1ccccc1 here?
**A.** inconclusive: 4.15 µM [inhibitor, full curve, poor fit]

**Q.** With O=C(Cc1ccc(Cl)c(Cl)c1)N1CCOCC1 as the molecule, how does the Potency read?
**A.** inconclusive: 18.5 µM [inhibitor, single point]

**Q.** Which Potency does the source give for Cn1cc(CNC(=O)C23CC4CC(CC(C4)C2)C3)cn1 here?
**A.** inconclusive: 18.5 µM [inhibitor, single point]

**Q.** With Cc1ccc(CN2CCN(Cc3c(C)nn(C(C)C)c3C)CC2CCO)o1 (stereo not given) as the molecule, how does the “activity change, negative = inhibition” value read?
**A.** inactive: 1.75%

**Q.** For COCC(=O)N(CCc1ccccc1)Cc1cc2cc(C)ccc2nc1Cl, which “activity change, negative = inhibition” value is on record?
**A.** inactive: 0%

**Q.** For O=C(O)c1ccc(Cn2c(=S)[nH]c3cc(Cl)ccc3c2=O)cc1, which “activity change, negative = inhibition” value is on record?
**A.** inactive: 20.1%

**Q.** With O=S(=O)(c1ccc2c(c1)OCCO2)N1CCN(c2ncnc3sccc23)CC1 as the molecule, how does the activity change, negative = inhibition read?
**A.** inactive: -20.1% [at 5.75 µM]

**Q.** Which Potency does the source give for Cc1ccc(OCC(=O)N(Cc2ccc(N(C)C)cc2)C2CCS(=O)(=O)C2)cc1C (stereo not given) here?
**A.** inconclusive: 14.7 µM [inhibitor, partial curve, poor fit]

**Q.** Which “activity change, negative = inhibition” value does the source give for CN(C(=O)CCc1nc(-c2ccccc2F)no1)c1ccccc1 here?
**A.** inactive: -30.5%

**Q.** With COCCn1c(=O)c2c(nc3n2CC(C)CN3CCc2ccccc2)n(C)c1=O (stereo not given) as the molecule, how does the Potency read?
**A.** inconclusive: 5.22 µM [inhibitor, partial curve]

**Q.** With COc1ccc(C)cc1C(=O)CCC(=O)N1CCN(c2ccccc2F)CC1 as the molecule, how does the Potency read?
**A.** inconclusive: 4.15 µM [inhibitor, single point]

**Q.** Which Potency does the source give for O=S(=O)(Nc1cccc(-c2ccc(N3CCCCCC3)nn2)c1)c1ccc(C(F)(F)F)cc1 here?
**A.** inconclusive: 18.5 µM [inhibitor, single point]

**Q.** With CCCCCCCCCCCCCCCCCC(=O)OCC(C)O (stereo not given) as the molecule, how does the “activity change, negative = inhibition” value read?
**A.** inactive: -2.98%

**Q.** With CC(C)CCNc1nc(N)c([N+](=O)[O-])c(NCC2CCCO2)n1 (stereo not given) as the molecule, how does the Potency read?
**A.** inconclusive: 18.5 µM [inhibitor, single point]

**Q.** For Cc1onc(C(=O)NN)c1C(=O)N1CCN(C(c2ccccc2)c2ccccc2)CC1, which Potency is on record?
**A.** inconclusive: 0.522 µM [inhibitor, full curve, poor fit]

**Q.** For O=C(NCC1CCCO1)/C(=C\c1cccc([N+](=O)[O-])c1)NC(=O)c1ccccc1 (stereo not given), which “activity change, negative = inhibition” value is on record?
**A.** inactive: 21.6%

**Q.** With COc1ccc(C(=O)Nc2ccccc2C(=O)NC(Cc2ccc(O)cc2)C(=O)NNC(=O)c2ccc(C)cc2)cc1 (stereo not given) as the molecule, how does the Potency read?
**A.** inconclusive: 18.5 µM [inhibitor, single point]

**Q.** With Cc1cc([N+](=O)[O-])ccc1NCc1cccc([N+](=O)[O-])c1 as the molecule, how does the Potency read?
**A.** active: 10.4 µM

**Q.** Which “activity change, negative = inhibition” value does the source give for COCCCN1CN=C(NS(=O)(=O)c2ccc(C)cc2)NC1 here?
**A.** inactive: -1.32%

**Q.** For OC(CNCc1ccc(F)cc1)(c1ccc(F)cc1)c1ccc(F)cc1, which Potency is on record?
**A.** active: 13.1 µM

**Q.** With Cc1nc2c(ccc3nc(NC(=O)Cc4cccc5ccccc45)sc32)s1 as the molecule, how does the Potency read?
**A.** inconclusive: 18.5 µM [inhibitor, single point]

**Q.** For CN(Cc1nc(-c2ccc(C(F)(F)F)cc2)no1)C1CCOCC1, which “activity change, negative = inhibition” value is on record?
**A.** inactive: 22.1%

**Q.** Which Potency does the source give for C=CCSc1nc2sc3c(c2c(=O)n1CC)CCc1ccccc1-3 here?
**A.** inconclusive: 0.738 µM [inhibitor, full curve]

**Q.** With Cc1ccc(SC(CC(=O)c2ccc(C)cc2)C(=O)O)cc1 (stereo not given) as the molecule, how does the Potency read?
**A.** inconclusive: 1.17 µM [inhibitor, full curve, poor fit]

**Q.** Which Potency does the source give for COc1ccc(Cl)cc1C(=O)C1CCCN(Cc2cnc(N3CCOCC3)s2)C1 (stereo not given) here?
**A.** active: 10.4 µM

**Q.** For Cc1ccc(C2C(C#N)=C(N)Oc3n[nH]c(-c4cccs4)c32)s1 (stereo not given), which Potency is on record?
**A.** inconclusive: 10.4 µM [inhibitor, single point]

**Q.** Which Potency does the source give for O=C(Nc1nnc(-c2ccccc2)s1)c1ccc(Cl)c(S(=O)(=O)N2CCOCC2)c1 here?
**A.** inconclusive: 3.7 µM [inhibitor, full curve]

**Q.** For CC1CC(C)CN(CCCCOc2ccc([N+](=O)[O-])cc2)C1 (stereo not given), which Potency is on record?
**A.** inconclusive: 18.5 µM [inhibitor, single point]

**Q.** Which Potency does the source give for CN1C(=O)[C@@H]2C[C@@]3([C@@]45C[C@H]6C(=O)N(C)[C@@H](Cc7ccccc7)C(=O)N6[C@@H]4Nc4ccccc45)c4ccccc4N[C@H]3N2C(=O)[C@@H]1Cc1ccccc1 here?
**A.** inconclusive: 4.15 µM [inhibitor, single point]

**Q.** For O=C(COC(=O)c1ccccc1Nc1ccccc1)Nc1ccccc1, which “activity change, negative = inhibition” value is on record?
**A.** inactive: 11.8%

**Q.** With CCCC(=O)Nc1cc(C(F)(F)F)ccc1N1CCOCC1 as the molecule, how does the “activity change, negative = inhibition” value read?
**A.** inactive: -12.5%

**Q.** Which Potency does the source give for O=C(O)c1cccc(-n2nc(-c3ccc(Cl)c([N+](=O)[O-])c3)c3ccccc3c2=O)c1 here?
**A.** inconclusive: 11.7 µM [inhibitor, single point]

**Q.** With COc1ccccc1N1CCN(C(=O)c2cc(C(C)(C)C)oc2C)CC1 as the molecule, how does the Potency read?
**A.** inconclusive: 18.5 µM [inhibitor, single point]

**Q.** With COC(=O)c1ccc(C23CC4(C2)[C@H](CN(C)[C@@H]4c2ccccc2)C3c2ccc(Cl)nc2)cc1 (stereo not given in full) as the molecule, how does the Potency read?
**A.** inconclusive: 11.7 µM [inhibitor, single point]
